Experimental data as given in US20070117768.

Amino acid sequences for entries named in this document (tags omitted). Residues count along the entry.
UniProt P07996, 19-1170: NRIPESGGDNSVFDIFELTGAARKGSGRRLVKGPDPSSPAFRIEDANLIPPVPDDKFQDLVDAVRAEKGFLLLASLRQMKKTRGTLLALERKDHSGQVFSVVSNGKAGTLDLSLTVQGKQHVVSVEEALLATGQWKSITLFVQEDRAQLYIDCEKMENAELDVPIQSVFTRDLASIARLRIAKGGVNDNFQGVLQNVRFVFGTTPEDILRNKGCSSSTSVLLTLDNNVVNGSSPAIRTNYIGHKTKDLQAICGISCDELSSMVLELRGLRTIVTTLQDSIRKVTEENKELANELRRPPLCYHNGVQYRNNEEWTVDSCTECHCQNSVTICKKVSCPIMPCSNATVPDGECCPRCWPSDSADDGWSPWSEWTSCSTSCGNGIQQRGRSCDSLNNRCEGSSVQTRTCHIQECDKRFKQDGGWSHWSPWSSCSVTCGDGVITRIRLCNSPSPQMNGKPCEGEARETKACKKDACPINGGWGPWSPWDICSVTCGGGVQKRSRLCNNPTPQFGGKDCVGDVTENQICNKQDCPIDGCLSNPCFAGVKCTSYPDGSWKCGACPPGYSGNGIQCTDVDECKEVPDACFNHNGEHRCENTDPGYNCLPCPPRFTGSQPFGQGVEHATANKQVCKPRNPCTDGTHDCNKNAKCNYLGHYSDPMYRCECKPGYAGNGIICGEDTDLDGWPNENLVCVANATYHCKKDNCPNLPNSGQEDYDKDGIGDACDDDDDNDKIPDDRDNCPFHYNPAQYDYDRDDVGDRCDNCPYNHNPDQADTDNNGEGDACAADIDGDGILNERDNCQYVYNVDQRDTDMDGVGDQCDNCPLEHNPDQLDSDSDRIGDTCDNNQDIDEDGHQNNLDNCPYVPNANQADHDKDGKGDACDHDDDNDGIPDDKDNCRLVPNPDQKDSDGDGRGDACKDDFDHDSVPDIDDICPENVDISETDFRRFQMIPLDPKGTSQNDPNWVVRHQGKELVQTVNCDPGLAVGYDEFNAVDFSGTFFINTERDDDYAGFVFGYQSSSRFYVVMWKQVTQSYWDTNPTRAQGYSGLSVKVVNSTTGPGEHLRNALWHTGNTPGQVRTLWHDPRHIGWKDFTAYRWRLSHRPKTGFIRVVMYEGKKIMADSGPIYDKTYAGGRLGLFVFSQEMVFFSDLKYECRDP

Target: thrombospondin-1 (TSP-1) (UniProt P07996)
Test: activity in cells
Conditions: 2'-NH2 on all U and C, inhibition of TSP-1-induced HUVEC apoptosis, direct binding not measured, protein in cells

GGGAGACGAUAUUCGUCCAUCACCGGACGGGACCAGAGGUGCCGCUGUCCGACUGAAUUCUCGACC [aptamer 89]
functional effect of the aptamer (50 nM): 91.2 % inhibition
functional effect of the aptamer (150 nM, 72 h, 95.65% at 300 nM): 95.2 % inhibition

GGGAGACGAUAUUCGUCCAUCGGGAGCAGGGAAGGGGGCCGCUGUCCGACUGAAUUCUCGACC [aptamer 82]
functional effect of the aptamer (150 nM, 72 h, 79.32% at 300 nM): 66 % inhibition

GGGAGACGAUAUUCGUCCAUCACCGGACGGGACCAGAGGUGCCGCUGUCCGACAUGGA [aptamer 89-2]
functional effect of the aptamer (50 nM, variant of aptamer 89): 83.8 % inhibition
